# Reference: patent publication US10363227B2, “Pharmaceutical formulation for use in the treatment and/or prevention of restenosis” (Centre Hospitalier Universitaire Vaudois (C.H.U.V.), priority 2013, dated 2019)
# Test system: hVSMCs
# Experiment: hVSMC transmigration, modified Boyden chamber
# Format: cell-based, human
# Details: versus control cells without ATV
# Description: FIG. 5: The hydrogel incorporating ATV decreases transmigration. Upper panel: Transmigration of hVSMCs in presence or absence of ATV was assessed with the modified Boyden chamber technique. […] Bar represents 20 μm.
# ATV incorporated in the hydrogels were assayed on primary human vascular smooth muscle cells (hVSMC) to test cell viability and accordingly whether ATV is released from the hydrogels in its active form. To that end, experiments on the influence of the drug on migration and transmigration of the hVSMC and the expression of different mRNAs of proteins involved in the cellular invasivity were performed.
smiles,measurement,value
"CC(C)c1c(C(=O)Nc2ccccc2)c(-c2ccccc2)c(-c2ccc(F)cc2)n1CC[C@@H](O)C[C@@H](O)CC(=O)O [ATV, Atorvastatin]",capacity of hVSMCs to transmigrate,significant decrease
